Data as given in PMC7819943, “Rice protein-binding microarrays: a tool to detect cis-acting elements near promoter regions in rice”.
The list shows a part of the results.

Target: T1, OsSMF1 (Oryza sativa, UniProt Q6ZLB0 1-436)
T1 sequence: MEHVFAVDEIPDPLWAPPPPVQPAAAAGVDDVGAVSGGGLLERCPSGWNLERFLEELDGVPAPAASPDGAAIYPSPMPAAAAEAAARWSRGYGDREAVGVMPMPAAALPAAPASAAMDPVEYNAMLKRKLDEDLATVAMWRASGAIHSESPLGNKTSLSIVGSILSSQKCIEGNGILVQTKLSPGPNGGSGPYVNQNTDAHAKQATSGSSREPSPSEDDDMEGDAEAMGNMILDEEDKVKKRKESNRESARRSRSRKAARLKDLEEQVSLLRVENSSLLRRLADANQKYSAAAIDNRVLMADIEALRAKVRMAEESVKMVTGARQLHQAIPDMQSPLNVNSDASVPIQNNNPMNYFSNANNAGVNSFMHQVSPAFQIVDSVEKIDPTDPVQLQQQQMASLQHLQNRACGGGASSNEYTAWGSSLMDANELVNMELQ
Test: protein-binding microarray (RPBM); PBS, 2% BSA, 51.3 ng/ul salmon testes DNA, 50 uM zinc acetate, 200 nM TF, 25 C, 1 h; high values mean tight binding
Details: protein: recombinant; tags: N-terminal polyhistidine and DsRed monomer fusion (pET32a); chain copies: 2; label: CyDye5-dUTP incorporated in the synthesized complementary strand; 3' TTTTT single-stranded linker to array surface; dsDNA, one strand shown
Summary of the method: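 In PBS with 2% BSA, salmon testes DNA and 50 µM zinc acetate, 200 nM protein was incubated on a custom Agilent array at 25 °C for 1 h and then washed off. The array had been made double-stranded by primer extension with Cy5-dUTP and blocked with 2% BSA. The proteins were transcription factors fused N-terminally to polyhistidine and DsRed, expressed in E. coli BL21-CodonPlus and purified on Ni–NTA. The binding signal is per-feature fluorescence intensity (arbitrary units) from an Axon 4000B scanner.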

With “ATCTGTTAGGTATTTAATTTATTTTCTTTTGCTATGTCAGCGGAGTCACCTAGTGCAG” as the sequence, how does the binding signal read?
Its binding signal is 3880 fluorescence intensity (a.u.).

Which binding signal does the source give for “GCGAGCTGAAGAGGAGGAGGGGAGTGGAGGAGGCGGCGCTCGGAGTCACCTAGTGCAG” here?
Its binding signal is 3530 fluorescence intensity (a.u.).

With “TTTGAACTATATATATCCGTGTCTGGTCATCTGGTGACATCGGAGTCACCTAGTGCAG” as the sequence, how does the binding signal read?
Its binding signal is 4590 fluorescence intensity (a.u.).

For “ATTCGTTATACACTGACAAGTCATATCATGTAATAGGTTGCGGAGTCACCTAGTGCAG”, which binding signal is on record?
The binding signal was 4270 fluorescence intensity (a.u.).

For “TACAGAAGAATCCTCGCTTCTGTTTGTTATTCCACGCTTCCGGAGTCACCTAGTGCAG”, which binding signal is on record?
The binding signal was 3530 fluorescence intensity (a.u.).

With “CATCATCTCCCCTTGTTGACTCACAATAACACAAACCCATCGGAGTCACCTAGTGCAG” as the sequence, how does the binding signal read?
The binding signal was 5390 fluorescence intensity (a.u.).

For “GCTAGCGTACGCATACATCAGCTTGTTAACACTTGTTGATCGGAGTCACCTAGTGCAG”, which binding signal is on record?
The binding signal was 23000 fluorescence intensity (a.u.).

With “AGACCGCACGTGACACTGCAGCTGGGACCCACCATTTCCCCGGAGTCACCTAGTGCAG” as the sequence, how does the binding signal read?
Its binding signal is 5390 fluorescence intensity (a.u.).

How did the binding signal turn out when “ACGGACTCATAACAGTCACTGCTGACGTAAGCCACACACACGGAGTCACCTAGTGCAG” was run?
The binding signal was 12200 fluorescence intensity (a.u.).

“ATCACATCGTTCCAATTTTGACGTGAACTAAACACAACCTCGGAGTCACCTAGTGCAG” was tested. Which binding signal did it give?
The binding signal was 3860 fluorescence intensity (a.u.).

“GGTGGGTGCAGAGGATGAAGGACGTAAGGGTGGATTGTCGCGGAGTCACCTAGTGCAG” was tested. Which binding signal did it give?
The binding signal was 3500 fluorescence intensity (a.u.).

“CTTCGACGTGAATGGCCAATCAAAAGTTAATCCCACTTAACGGAGTCACCTAGTGCAG” was tested. Which binding signal did it give?
Its binding signal is 7980 fluorescence intensity (a.u.).

For “GGCCGAGCCGCCCGTTTCGTTCTATCAGACTCTTCTTTATCGGAGTCACCTAGTGCAG”, which binding signal is on record?
The binding signal was 3200 fluorescence intensity (a.u.).

Which binding signal does the source give for “GGCCCATCGGCTAAGCACCCACATGTCGCGCTCGCACGCACGGAGTCACCTAGTGCAG” here?
The binding signal was 3640 fluorescence intensity (a.u.).

For “TTGTGTGCTCCACATCACTCCAAACCCTCTGTCCCAATCACGGAGTCACCTAGTGCAG”, which binding signal is on record?
Its binding signal is 7950 fluorescence intensity (a.u.).

For “CAAACTTCTTAGCGCACCACGTCGCCGTCAAGCGAGCGCTCGGAGTCACCTAGTGCAG”, which binding signal is on record?
The binding signal was 3480 fluorescence intensity (a.u.).

“TCCTCTTCCCCAGACCCTGTCACGTCGGTACGGGTTGTCGCGGAGTCACCTAGTGCAG” was tested. Which binding signal did it give?
Its binding signal is 3760 fluorescence intensity (a.u.).

How did the binding signal turn out when “ACCTACCCTGTGGTTTCCAGCCAAGCATACACGCATGCCACGGAGTCACCTAGTGCAG” was run?
The binding signal was 4140 fluorescence intensity (a.u.).

How did the binding signal turn out when “TGTGCCATTGTCACTGACATGTGGGCCGCGCGCGGCGCACCGGAGTCACCTAGTGCAG” was run?
The binding signal was 3340 fluorescence intensity (a.u.).

Which binding signal does the source give for “TCGAGTGAGATATAGCAAAATCGGGTTGAAAATGACATCACGGAGTCACCTAGTGCAG” here?
The binding signal was 3220 fluorescence intensity (a.u.).

“ACCCGAAGACCAACCTATCTACGAGACCAACCACCAAATCCGGAGTCACCTAGTGCAG” was tested. Which binding signal did it give?
The binding signal was 37900 fluorescence intensity (a.u.).

Which binding signal does the source give for “CGTGCCTACGCAGCGCCGCGCCGCACAGCCTAGCCTACGTCGGAGTCACCTAGTGCAG” here?
Its binding signal is 5090 fluorescence intensity (a.u.).

Which binding signal does the source give for “ATCGGTCCCCGAGGGAGGTTCAGGCCACCGTCTTCGGCTTCGGAGTCACCTAGTGCAG” here?
Its binding signal is 3180 fluorescence intensity (a.u.).

For “AATGTTTCATCACATCACTGAGGAGGACCGTGCGATGTTTCGGAGTCACCTAGTGCAG”, which binding signal is on record?
Its binding signal is 3770 fluorescence intensity (a.u.).

How did the binding signal turn out when “CTACTCCTTCTGCTCCTGCTGACTATCGTGCTCCACCTTTCGGAGTCACCTAGTGCAG” was run?
The binding signal was 3870 fluorescence intensity (a.u.).

How did the binding signal turn out when “ATTCAATCCACGTTGGTTTTATGGGCCGTCTCACCGTGACCGGAGTCACCTAGTGCAG” was run?
The binding signal was 6480 fluorescence intensity (a.u.).

“GCTGTGGGTAGGCCGGCGCCGCCGGCCGACGGGTGGGGAGCGGAGTCACCTAGTGCAG” was tested. Which binding signal did it give?
Its binding signal is 3980 fluorescence intensity (a.u.).

For “CTGGCGTATCAGTAGCCATGTCATATGTGTAAAGTGTTTGCGGAGTCACCTAGTGCAG”, which binding signal is on record?
The binding signal was 4560 fluorescence intensity (a.u.).

With “TAGGATCCAAGCCATGCATCTCTATTTATACACCTGCTCGCGGAGTCACCTAGTGCAG” as the sequence, how does the binding signal read?
Its binding signal is 3160 fluorescence intensity (a.u.).

For “AATGTTGAATGTTTGAGGTGTTACAGCATTTGACTCATGCCGGAGTCACCTAGTGCAG”, which binding signal is on record?
Its binding signal is 4200 fluorescence intensity (a.u.).

For “AGCTACGCCCACGCGAGCCGCGCACCCACGCGTGGGTACACGGAGTCACCTAGTGCAG”, which binding signal is on record?
Its binding signal is 4100 fluorescence intensity (a.u.).

Which binding signal does the source give for “AATTATTGAGGCTAACCTTTTGTACATGTCAGCTCATCTCCGGAGTCACCTAGTGCAG” here?
The binding signal was 5280 fluorescence intensity (a.u.).

Which binding signal does the source give for “ATCACCTCCTGTACACATCATCTGAACCAGCCAGCAGGCACGGAGTCACCTAGTGCAG” here?
The binding signal was 5390 fluorescence intensity (a.u.).

Which binding signal does the source give for “GCTCTAATCATTGATGACATATATAAGCTTGACTTGGTCACGGAGTCACCTAGTGCAG” here?
The binding signal was 4370 fluorescence intensity (a.u.).

“AATCCTTGTTCTCCCTGACGTGTTTTAGGATGTGATGGCCCGGAGTCACCTAGTGCAG” was tested. Which binding signal did it give?
The binding signal was 7310 fluorescence intensity (a.u.).

For “GCGGAAAGGGAAAGGCCCGACGAATGGGAGGAATCATATACGGAGTCACCTAGTGCAG”, which binding signal is on record?
The binding signal was 40300 fluorescence intensity (a.u.).

For “CTACGACCGGCTGCCTCGTCACGCCGGCATCTGTCGCTCTCGGAGTCACCTAGTGCAG”, which binding signal is on record?
Its binding signal is 9820 fluorescence intensity (a.u.).

With “TTGACAGCTTAAGAAAGCACGCGTCACCACTATGAGATTGCGGAGTCACCTAGTGCAG” as the sequence, how does the binding signal read?
The binding signal was 5300 fluorescence intensity (a.u.).

How did the binding signal turn out when “GTATGTGTGTCATGCTCTTTCAGCAGCATCAGCAATCAAACGGAGTCACCTAGTGCAG” was run?
Its binding signal is 4430 fluorescence intensity (a.u.).

With “GAAGTTCATACTGTAGCAATTAGATGCCAGTATGCCACCGCGGAGTCACCTAGTGCAG” as the sequence, how does the binding signal read?
The binding signal was 3530 fluorescence intensity (a.u.).

Which binding signal does the source give for “TTGTGGAGTCATGTAGTAGTACACCATCAATGTGGCACACCGGAGTCACCTAGTGCAG” here?
The binding signal was 5170 fluorescence intensity (a.u.).

Which binding signal does the source give for “CATGTACTAGTAGTCTAGTAGTACAACTCATCAGAAAAGGCGGAGTCACCTAGTGCAG” here?
Its binding signal is 3180 fluorescence intensity (a.u.).
